Test results as given in PubChem BioAssay AID2685 (National Center for Advancing Translational Sciences (NCATS), 2010).
The other results are listed elsewhere or left out. The main result of the screen is listed elsewhere. These columns were measured beside it and carry no call. The list favours compounds with an active or inconclusive main result. Words in brackets tell the shape of the fitted curve; partial curves, single points and poor fits give uncertain potencies.

Experiment: qHTS Assay for Lipid Storage Modulators in Drosophila S3 Cells;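 for cell number change: cells counted by Cell Tracker Red CMTPX staining in the red channel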
Conditions: BODIPY lipid droplet fluorescence, 18-24 h; for cell number change: measured here: cell count max response, cells fed with added oleic acid
Summary of the method: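 Drosophila S3 cells loaded with oleic acid (400 uM, as added) and compounds at several concentrations; lipid droplets imaged by 488-nm laser-scanning cytometry, 500–530 nm intensity and object ratio to cell channel. Percent activity normalized to 20 uM Triacsin C.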

[1] = measured here: lipid fluorescence (Fed channel) AC50, cells fed with added oleic acid
[2] = measured here: cell number channel AC50, cells fed with added oleic acid

SMILES	AC50 [1]	cell number change [%]	AC50 [2]
Cc1ccc(C2(C)NC(=O)N(CC(=O)NC(=O)NCCC(C)C)C2=O)cc1 (stereo unspecified)	1.46 µM [falling, full curve]		
COc1ccc(-c2cc(-c3ccccc3)no2)cc1	14.6 µM [rising, single point]	17	
O=C(CNC(=S)NC(=O)c1cccc([N+](=O)[O-])c1)c1ccccc1		-41.8	1.16 µM [falling, full curve]
CCc1nn(CC(=O)NCCCN2CCCC2=O)c(=O)c2cc3sccc3n12	29.1 µM [rising, single point]	30.1	18.4 µM [rising, single point]
Cc1ccc(C2C(C(=O)O)c3ccccc3C(=O)N2C)c(C)c1 (stereo unspecified)	6.51 µM [rising, single point]	-30.8	18.4 µM [falling, single point]
Nc1nc2c(-c3ccc(Br)cc3)nnn2c2ccccc12	29.1 µM [falling, single point]	-27.7	
Cc1ccc(S(=O)(=O)Cc2ccc(C(=O)NCCCN3CCCC3=O)o2)cc1	2.06 µM [rising, partial curve]	8.67	
C=CCN1C(=O)/C(=C2/Sc3ccc(OC)cc3N2C)SC1=Nc1cccc(O)c1	25.9 µM [falling, single point]	-29.1	
CCOc1ccc(NC(=O)CNC(=O)c2cn(-c3ccccc3OC)c(=O)c3ccccc23)cc1	2.31 µM [rising, partial curve]		2.59 µM [rising, partial curve]
O=C(O)C(Cc1ccccc1)N1C(=O)c2cccc3cccc(c23)C1=O (stereo unspecified)		-8.7	7.31 µM [falling, partial curve]
O=C(Nc1c(F)cccc1F)c1cnc(N2CCN(c3ccccn3)CC2)c2ccccc12		16	0.82 µM [rising, full curve, poor fit]
COC(=O)c1ccccc1NC(=O)NN1CCN(C)CC1	1.3 µM [rising, full curve]	2.7	
C/C(=N\NC(=S)NCC(C)(C)C)c1cc(F)cc(F)c1O		-45	29.1 µM [falling, single point]
CCOC(=O)c1cnc(SC)nc1Oc1cccc(NC(=O)c2ccc(C)cc2)c1	6.51 µM [rising, partial curve, poor fit]		
CCOc1ccc(S(=O)(=O)N2CCOCC2)cc1NS(=O)(=O)c1ccc(OC)c([N+](=O)[O-])c1	0.291 µM [rising, partial curve, poor fit]	64	29.1 µM [rising, single point]
O=C(NCc1ccc(Cl)cc1)c1cc(S(=O)(=O)N2CCCCC2)c[nH]1	8.2 µM [falling, partial curve]	5.69	0.651 µM [rising, full curve, poor fit]
O=S(=O)(c1cccc2ccccc12)N1CCCCC1		14.4	
COC(=O)CNC(=O)C1CCN(S(=O)(=O)c2cnc[nH]2)CC1	0.291 µM [falling, full curve]		
COc1ccc(NC(=O)CN2C(=O)NC3(CCCC3)C2=O)cc1Cl	0.58 µM [falling, single point]	-15.3	

SMILES	AC50 [1]	cell number change [%]	AC50 [2]
CC(C)NC(=O)CCn1c(=S)oc2ccccc21	6.51 µM [falling, single point]	23.8	
COCCn1c(C)cc(C(=O)CSc2cc(C)c3ccccc3n2)c1C	0.00461 µM [falling, full curve, poor fit]	-16.1	
CC1CCN(CCCNC(=O)C2CC(=O)N(CCc3ccccc3)C2)CC1 (stereo unspecified)	0.651 µM [rising, full curve, poor fit]	6.49	
Cn1c(=O)c2c(n(Cc3ccccc3)c1=O)NC(=O)C2CC(=O)O (stereo unspecified)	1.3 µM [falling, full curve]	-14.8	0.058 µM [falling, full curve, poor fit]
CC1(N2CCCCC2)CC2(O)C(=[N+]1[O-])CCC/C2=N\O (stereo unspecified)		4.78	
Cc1n[nH]c(=O)c2c(NC(=O)CSc3nnc(-c4ccncc4)n3C)oc(C)c12		2.19	
S=c1nc[nH]c2c1sc1nc(-c3ccccc3)c3c(c12)CCCC3	16.4 µM [falling, single point]	-31	14.6 µM [falling, single point]
O=C(/C=C/c1ccccc1)OCc1cncs1		3.43	
Cc1ccc2c(=O)cc(C(=O)NCCc3ccc(S(N)(=O)=O)cc3)oc2c1C	6.51 µM [rising, single point]	2.1	
Cc1cc(Nc2cccc([N+](=O)[O-])c2)n2c(nc3ccccc32)c1C#N		-93	29.1 µM [falling, single point]
COC(=O)c1nnn(-c2nc(N3CCOCC3)nc(N3CCOCC3)n2)c1C		12	0.164 µM [falling, full curve, poor fit]
COc1ccc(C2C(C#N)=C(N)OC3=C2C(=O)CC(C)(C)C3)cc1 (stereo unspecified)		30.3	0.00517 µM [rising, full curve, poor fit]
CCOC(=O)C1CCCN(C(=O)Nc2ccccc2)C1 (stereo unspecified)	29.1 µM [falling, single point]	-29.6	
C=CCn1c(C)cc(-c2csc(NC(=O)CCc3nc4ccccc4c(=O)[nH]3)n2)c1C			0.326 µM [rising, full curve]
CN(C(=O)c1ccnn1C)C1CCCN(Cc2ccccc2F)C1 (stereo unspecified)		15.3	
COC(=O)N/N=C\c1cc(Br)ccc1OCc1ccccc1	25.9 µM [rising, partial curve]		
C/C(=N\NC(=O)c1cccc(Br)c1)c1cccnc1	0.58 µM [falling, single point]	26.2	
Cc1c(NC(=O)c2cc(-c3ccc(Cl)c(Cl)c3)on2)c(=O)n(-c2ccccc2)n1C	13 µM [rising, partial curve]	27	
O=C(O)CN(c1ccccc1)C1SC(=O)NC1=O (stereo unspecified)	14.6 µM [falling, partial curve, poor fit]		

Quoted from the listing.
Under cell number change [%], `CC(C)NC(=O)CCn1c(=S)oc2ccccc21` shows 23.8
Under cell number change [%], `Cc1c(NC(=O)c2cc(-c3ccc(Cl)c(Cl)c3)on2)c(=O)n(-c2ccccc2)n1C` shows 27
